Results published in patent publication US20240142403A1 (priority 2022, published 2024).

Test: Breath sample assay for TCE and associated byproducts (SUPER SESI-HRMS, negative-ion mode)
Set-up: species or system human; key: a “—” denotes non-detection
Settings: healthy subject; for value of abundance in breath, Breath 2: breath 2 of five; for value of abundance in breath, Breath 3: breath 3 of five; for value of abundance in breath, Breath 4: breath 4 of five; for value of abundance in breath, Breath 5: breath 5 of five; for value of abundance in breath, Breath 1: breath 1 of five

1,2-dichlorovinyl cysteine [1,2-dichlorovinyl cysteine (DCVC)]
—: value of abundance in breath, Breath 2 | value of abundance in breath, Breath 3 | value of abundance in breath, Breath 4 | value of abundance in breath, Breath 5

N[C@@H](CCC(=O)N[C@@H](CSC(Cl)=CCl)C(=O)NCC(=O)O)C(=O)O [1,2,dichlorovinyl glutathione]
—: value of abundance in breath, Breath 1 | value of abundance in breath, Breath 2 | value of abundance in breath, Breath 3 | value of abundance in breath, Breath 4 | value of abundance in breath, Breath 5

ClC=C(Cl)Cl [Trichlorethylene, Trichloroethylene]
—: value of abundance in breath, Breath 3 | value of abundance in breath, Breath 4 | value of abundance in breath, Breath 5

S=C=CCl [chlorothioketene]
—: value of abundance in breath, Breath 1 | value of abundance in breath, Breath 2 | value of abundance in breath, Breath 3 | value of abundance in breath, Breath 4 | value of abundance in breath, Breath 5

O=C(O)C(Cl)(Cl)Cl [trichloro acetic acid]
—: value of abundance in breath, Breath 1 | value of abundance in breath, Breath 2 | value of abundance in breath, Breath 3 | value of abundance in breath, Breath 4 | value of abundance in breath, Breath 5

OCC(Cl)(Cl)Cl [trichloroethanol]
—: value of abundance in breath, Breath 1 | value of abundance in breath, Breath 2 | value of abundance in breath, Breath 3 | value of abundance in breath, Breath 4 | value of abundance in breath, Breath 5
